Data published in PubChem BioAssay AID1471 (National Center for Advancing Translational Sciences (NCATS), 2008).
Screen size: about 230,000 compounds; about 310 (0.13%) were called active. Inconclusive means that the source gave no clear call. Such entries were picked first, then a sample of the others. The call rests on the fitted dose curve; in most records, active means well fitted activation curve with a large enough effect; inconclusive means small, poorly fitted or top-dose-only effect; inactive means no such curve, though single readings can be large or run the other way. Potencies beside an inconclusive call are fits to weak or partial responses and may not hold up. Some structures have more than one record in an assay (separate samples or runs), and their calls can disagree.

test: qHTS Multiplex Assay to Identify Dual Action Probes in a Cell Model of Huntington: Cytoprotection (ATP); conditions: PC12 HTT-Q103 induced, ATP luminescence, 40 h; cytoprotection (ATP increase): at 56.4 µM (top of the series) unless noted; further: nearly all actives have a fitted effect of over 45% in size;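 on cytoprotection (ATP increase): toxic huntingtin expression switched on by the ecdysone agonist tebufenozide; % of control where 0% means no effect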
Outline: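 Huntington model: PC12 line, ecdysone-inducible HTTQ103 exon1–GFP, tebufenozide 100 nM. Test articles in a dose series. Endpoint luminescence from cellular ATP.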
Potency means the concentration at half of the fitted maximal effect.

Structure (SMILES)	Potency	cytoprotection (ATP increase)
O=C(NC1CCCC1)c1cccc(S(=O)(=O)N2CCCCC2)c1	inconclusive: 3.16 µM [activator, single point]	
Fc1ccc(Nc2nc(-c3ccncc3)cs2)cc1	inconclusive: 4.47 µM [activator, partial curve]	
Cc1ccc(S(=O)(=O)C2C(=O)N(C)C3(C)CC2c2ccccc2O3)cc1C (configuration not stated)	active: 3.98 µM	
Nc1cc(N2CCCCC2)nc(N)[n+]1OS(=O)(=O)[O-]	inconclusive: 17.8 µM [activator, single point]	
Cc1ccccc1-n1nnnc1SC1CCOC1=O (configuration not stated)		inactive: 15.8% [at 10 µM]
CN(C)CCOC(c1ccccc1)c1ccccc1 (tested in a mixture with another compound)	active: 3.16 µM	
NC(=O)NO	inconclusive: 7.94 µM [activator, partial curve]	
CC(C)CNC(=O)C(=O)Nc1ccc(N(C)C)cc1	inconclusive: 1.26 µM [activator, single point]	
Cn1c(=O)cc(OCC(=O)NCCc2ccc(Cl)cc2)c2ccccc21	inconclusive: 1.26 µM [activator, single point]	
O=[N+]([O-])c1ccc(N2CCCC2)cc1NC(c1ccccc1)c1ccccc1	inconclusive: 0.282 µM [activator, full curve, poor fit]	
COc1cccc(CS(=O)(=O)c2nnnn2-c2ccccc2)c1	inconclusive: 0.562 µM [activator, full curve, poor fit]	
COc1ccc(S(=O)(=O)Nc2cccc(SC)c2)cc1OC		inactive: 5.32% [at 10 µM]
c1ccc(C(c2c[nH]c3ccccc23)c2c[nH]c3ccccc23)nc1	inconclusive: 2.82 µM [activator, partial curve, poor fit]	
O=C(CCCCCn1c(=S)[nH]c2ccccc2c1=O)NCc1ccc2c(c1)OCO2	inconclusive: 0.631 µM [activator, partial curve]	
COc1ccc(C(c2c(O)ccc3ccccc23)N2CCOCC2)c(OC)c1 (configuration not stated)	inconclusive: 39.8 µM [activator, single point]	
O=C(Nc1ccccc1)N1CC2(CCN(C(=O)c3ccco3)CC2)C1	inconclusive: 0.316 µM [activator, full curve, poor fit]	
CC(C)(C)NC(=O)CSc1nc2scc(-c3ccccc3)c2c(=O)[nH]1	inconclusive: 0.0891 µM [activator, partial curve, poor fit]	
C=C(C)C(=O)/C=C/c1ccc(Br)cc1	inconclusive: 5.62 µM [activator, single point]	
COc1ccc(N2CCC(CNC(=S)Nc3cc(C)cc(C)c3)C2)cc1 (configuration not stated)		inactive: 15.9% [at 10 µM]
CCCCCCC1CC(=O)NC(=S)N1 (configuration not stated)	inconclusive: 0.631 µM [activator, partial curve]	
O=C(CN1C(=O)/C(=C/c2c(F)cccc2Cl)Oc2ccccc21)NCc1ccco1		inactive: -1.3%

Structure (SMILES)	Potency	cytoprotection (ATP increase)
CN(C)c1ncc2nc(-c3cccs3)c(=O)n(CCc3ccccc3)c2n1	inconclusive: 0.158 µM [activator, full curve, poor fit]	
CCC(=O)NC(=S)NNC(=O)c1ccc(OC)cc1	inconclusive: 35.5 µM [activator, single point]	
Oc1ccc(/C=N/Nc2ncnc3nc[nH]c23)cc1		inactive: -13.3% [at 10 µM]
COc1cccc(C(=O)NC(=S)N2CCN(c3ccc(C(F)(F)F)cc3[N+](=O)[O-])CC2)c1	inconclusive: 1 µM [activator, partial curve]	
O=C1CC(N(CCc2ccccc2)C(=S)Nc2ccccc2)C(=O)N1c1ccc(Br)cc1 (configuration not stated)		inactive: 5.47% [at 10 µM]
CCN(CC)S(=O)(=O)c1ccc(S(=O)(=O)Nc2ccc(C(=O)N3CCCC3)cc2)cc1		inactive: -3.03% [at 10 µM]
Cc1cccc(C2=NN(c3ccccc3)[C@@H](C(=O)N3CCOC3=O)[C@@H]2c2ccccc2)c1	inconclusive: 4.47 µM [activator, partial curve]	
Nc1nc2ncc(-c3ccsc3)c(N)n2n1	inconclusive: 1.26 µM [activator, partial curve]	
Cc1ccc2nc(NC(=O)COC(=O)c3ccncc3)sc2c1	inconclusive: 1 µM [activator, partial curve]	
O=c1c(C=NCc2cccnc2)c(C(F)(F)F)[nH]n1-c1nc2ccccc2s1	inconclusive: 3.55 µM [activator, single point]	
O=C(c1cccs1)N1N=C(c2ccccc2)CC1c1ccccc1 (configuration not stated)		inactive: 7.29% [at 10 µM]
COC(=O)c1cccc(NC(=O)c2ccco2)c1	inconclusive: 1.26 µM [activator, single point]	
CS(=O)(=O)Nc1cccc(-c2nc(-n3ccnc3)c3ccccc3n2)c1	inconclusive: 1.41 µM [activator, partial curve]	
CCOC(=O)C1CCN(c2c(NCCCN3CCCCC3)c(=O)c2=O)CC1		inactive: 4.11% [at 10 µM]
O=C(COC(=O)c1cc(-c2cccs2)nn1-c1ccccc1)Nc1ccc(Cl)c([N+](=O)[O-])c1		inactive: -1.8% [at 10 µM]
O=S(=O)(NCc1ccccc1Cl)c1cnc[nH]1	inconclusive: 3.16 µM [activator, partial curve]	
CCCCNC(=O)C1CCN(S(=O)(=O)N2CCOCC2)CC1	inconclusive: 1.26 µM [activator, single point]	
O=C(NCc1ccco1)O[C@@H]1C(=O)c2cc(Br)ccc2O[C@H]1c1ccc2c(c1)OCO2	inconclusive: 5.01 µM [activator, single point]	
CCc1cccc(CC)c1NC(=O)COC(=O)C1(C)CC1(Cl)Cl (configuration not stated)	inconclusive: 0.708 µM [activator, partial curve]	
C/C(=N\NC(=O)C1CC1)c1cccc(NC(=O)c2cccc(Cl)c2)c1	inconclusive: 0.0056 µM [activator, full curve, poor fit]	
CCCCC1=CC2=CC(=O)C(C)(OC(=O)CC)C(=O)C2=CN1C1CCCCC1 (configuration not stated)	inconclusive: 0.0009 µM [activator, full curve, poor fit]	

Some of these compounds in order of formula weight, smallest number first.
Structure (SMILES)	Potency	cytoprotection (ATP increase)
O=S(=O)(NCc1ccccc1Cl)c1cnc[nH]1	inconclusive: 3.16 µM [activator, partial curve]	
O=C(CCCCCn1c(=S)[nH]c2ccccc2c1=O)NCc1ccc2c(c1)OCO2	inconclusive: 0.631 µM [activator, partial curve]	
O=C(COC(=O)c1cc(-c2cccs2)nn1-c1ccccc1)Nc1ccc(Cl)c([N+](=O)[O-])c1		inactive: -1.8% [at 10 µM]
